{
  "source": "patent US8153116B2",
  "about": "“Use of conditional plasmodium strains lacking an essential gene in malaria vaccination” (University of Connecticut, priority 2006, dated 2012)",
  "test_system": "wild type, pfpmtΔ+PfPMT and pfpmtΔ parasites",
  "experiment": "TUNEL assay of drug-treated parasites",
  "format": "cell-based, Plasmodium falciparum",
  "conditions": "100 nM, 24 h",
  "method": "The terminal deoxynucleotidyl transferase (TdT) dUTP nick end labeling (TUNEL) kit (Roche) was used to detect apoptotic cells following the manufacturer's instructions, with some modifications. Briefly, asynchronous cultures were grown to 10% parasitemia and 1 ml of the culture aliquots were washed twice with PBS and the cell count adjusted to 1×10^6 cells/ml. Fixation was achieved by resuspending the cells in 2% paraformaldehyde solution in PBS and incubated at room temperature for 1 h. The fixed cells were washed twice with PBS, resuspended in 100 μl of 0.1% Triton X-100 in 0.1% sodium citrate solution, and incubated for 2 min on ice. Cells were then washed twice in PBS and kept on ice until labeling. A positive control sample was prepared by incubating fixed and permeabilized cells with 3000 U/ml of DNase I for 15 min at room temperature followed by two washes with PBS. To label the cells, 50 μl of the TUNEL reaction mixture was added to the cell pellet and mixed gently. A negative control sample was included by treating fixed, permeabilized cells with the labeling solution in, the absence of the terminal TdT enzyme. The reaction mixtures were incubated in the dark at 37° C. for 1 h and then washed twice in PBS and resuspended in 250 μl PBS. Cells were analyzed by fluorescence microscopy at 525 nm wavelength with the FITC filter. […]",
  "note": "At least one compound was matched to its structure with a doubt left.",
  "data": [
    {"smiles": "CCc1nc(N)nc(N)c1-c1ccc(Cl)cc1", "note": "[pyrimethamine]", "values": [
      {"measurement": "TUNEL staining of drug-treated parasites", "result": "positively stained with TUNEL"}
    ]}
  ]
}
